This is an account of results in paper PMC3769308.

The chains behind the UniProt entries cited, without tags or fusion partners. Residues count along the entry.
UniProt P9WHT9, residues 58-291: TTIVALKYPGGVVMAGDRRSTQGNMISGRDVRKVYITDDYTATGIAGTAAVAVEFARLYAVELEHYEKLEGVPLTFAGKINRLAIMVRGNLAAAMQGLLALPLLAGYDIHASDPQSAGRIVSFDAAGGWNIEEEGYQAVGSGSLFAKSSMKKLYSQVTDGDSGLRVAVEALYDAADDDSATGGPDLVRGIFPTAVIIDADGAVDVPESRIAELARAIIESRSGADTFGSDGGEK
UniProt P9WHU1: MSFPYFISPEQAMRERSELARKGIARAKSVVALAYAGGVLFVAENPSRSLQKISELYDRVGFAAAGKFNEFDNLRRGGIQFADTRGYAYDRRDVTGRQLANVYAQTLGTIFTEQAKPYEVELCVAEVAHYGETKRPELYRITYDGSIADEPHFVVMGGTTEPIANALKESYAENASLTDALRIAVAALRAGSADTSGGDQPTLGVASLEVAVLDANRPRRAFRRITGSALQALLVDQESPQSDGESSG

This experiment addresses PrcB, His-tagged beta subunit of the Mtb proteasome core particle (Mycobacterium tuberculosis) (UniProt P9WHT9). The experiment is described as follows: pull-down.

These are yes or no findings as the source states them, for the method shown. In cells and extracts the contact can be indirect. Some results given as binding are weak or reduced against the parent protein; the word gives no strength.

In the case of “PrcA, alpha subunit of the Mtb proteasome core particle (wild type) (from UniProt P9WHU1 1-248)”, the binding result is listed as “binds”.
